{"source": "PubChem BioAssay AID493014", "about": "(National Center for Advancing Translational Sciences (NCATS), 2011)", "note": "About 170 (0.05%) of roughly 340,000 compounds were called active. Inconclusive results, whose numbers are uncertain, are shown with a selection of clear calls. The call rests on the fitted dose curve; in most records, active means well fitted inhibition curve with a large enough effect in the signal ratio, with a control signal flat (not every such curve was filed as active); inconclusive means small, poorly fitted or top-dose-only effect, or effect the other way, or a change in a side signal; inactive means flat fitted curve, though single readings scatter; the % refers to the signal ratio. Potencies of inconclusive entries are doubtful fits and often do not repeat. Potency means the concentration at half of the fitted maximal effect."}
{"experiment": "qHTS Assay to Find Inhibitors of Chronic Active B-Cell Receptor Signaling;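 on activity change, negative = inhibition: plate controls were basal doxycycline-induced cells for no effect and cells given 10 µM MG132 for full effect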", "conditions": "ABC-DLBCL IkBa-CBG/CBR reporter, luminescence ratio (green luciferase fused to IkBa over red control in TMD8 lymphoma cells), 4 h; activity change, negative = inhibition: at 46.1 µM (top of the series) unless noted", "summary_of_the_method": "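Cell line TMD8 (human ABC DLBCL), stably expressing tet-inducible CBG68-IkBa fusion and CBR; IMDM/0.5% FBS; cpd up to 46 uM; dox induction, 4 h, 37C/5% CO2; dual luminescence; green/red ratio; MG132 control.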"}
{"smiles": "COc1ccc(-c2cc(C(F)(F)F)c(C#N)c(SCC(=O)Nc3ccc(C)cc3)n2)cc1", "activity change, negative = inhibition": "inconclusive: 10.4%"}
{"smiles": "O=C(Nc1ccc(F)cc1)N(Cc1cccs1)Cc1cc2cc3c(cc2[nH]c1=O)OCO3", "activity change, negative = inhibition": "inconclusive: 4.13%"}
{"smiles": "O=C(Nc1nnc(-c2cccs2)o1)c1ccco1", "Potency": "inconclusive: 6.51 µM [falling, single point]"}
{"smiles": "O=C1N=C(N2CCOCC2)S/C1=C/c1cccs1", "activity change, negative = inhibition": "inactive"}
{"smiles": "CN(C(=O)COC(=O)c1ccccc1Nc1ccccc1)C1CCS(=O)(=O)C1", "note": "(configuration not stated)", "Potency": "inconclusive: 20 µM [falling, partial curve]"}
{"smiles": "O=C1C(Cl)=C(N2CCCCCC2)C(=O)N1c1ccc(Cl)cc1", "activity change, negative = inhibition": "inconclusive: -6.01%"}
{"smiles": "COc1cccc(/C=C/C(=O)Nc2cccc(C(C)=O)c2)c1OC", "Potency": "inconclusive: 22.4 µM [falling, partial curve]"}
{"smiles": "CCOC(=O)c1[nH]c(COC(=O)c2ccccc2NC(=O)c2ccco2)c(C(=O)OCC)c1C", "Potency": "inconclusive: 31.6 µM [falling, single point]"}
{"smiles": "COc1ccc2[nH]cc(CCNC(=O)CC[C@H]3O[C@@H](n4cc(C)c(=O)[nH]c4=O)C[C@@H]3O)c2c1", "activity change, negative = inhibition": "inconclusive: 4.04%"}
{"smiles": "CCc1ccc(NC(=O)C(C)OC(=O)/C=C/c2ccc(O)c(OC)c2)cc1", "note": "(configuration not stated)", "Potency": "active: 20.6 µM"}
{"smiles": "Fc1ccccc1-c1nc(-c2ccc(Br)o2)no1", "activity change, negative = inhibition": "inconclusive: -17.4%"}
{"smiles": "COc1cc(C[C@H](C)[C@H](C)Cc2ccc3c(c2)OCO3)ccc1O", "activity change, negative = inhibition": "inconclusive: -3.8%"}
{"smiles": "Cc1ccc(-c2nc3[nH]c(=O)cc(NC(=O)C(C)C)n3n2)cc1", "activity change, negative = inhibition": "inactive"}
{"smiles": "Nc1cc(C(F)(F)F)ccc1NCCc1ccccn1", "activity change, negative = inhibition": "inactive"}
{"smiles": "O=C(NCCSc1c[nH]c2ccccc12)c1ccc2c(c1)OCO2", "activity change, negative = inhibition": "inconclusive: -10.5%"}
{"smiles": "CCOCCCNC(=S)N1C2CCC1CC(NC(=O)NC13CC4CC(CC(C4)C1)C3)C2", "note": "(configuration not stated)", "activity change, negative = inhibition": "inconclusive: -1.41%"}
{"smiles": "CCCCCC(=O)c1ccc(O)cc1O", "activity change, negative = inhibition": "inconclusive: 5.79%"}
{"smiles": "COc1ccccc1NC(=O)C(C)Nc1ccc(C)c(Cl)c1", "note": "(configuration not stated)", "Potency": "inconclusive: 35.5 µM [falling, single point]"}
{"smiles": "COc1ccc(-c2nc(C(N)=O)c3[nH]c(=O)n(-c4ccccc4OC)c3n2)c(OC)c1", "Potency": "inconclusive: 18.4 µM [falling, partial curve]"}
{"smiles": "CC(=O)NCCc1nc2cc(NC(=O)c3cccs3)ccc2n1C", "Potency": "inconclusive: 5.62 µM [falling, single point]"}
{"smiles": "COc1ccc(OC)c(N=Cc2c(O)[nH]c3ccccc23)c1", "Potency": "inconclusive: 2.24 µM [falling, partial curve]"}
{"smiles": "COc1ccccc1C(=O)NCCC(=O)Nc1nc2ccccc2[nH]1", "activity change, negative = inhibition": "inconclusive: -9.43%"}
{"smiles": "CSCc1c(C(=O)Nc2ccccc2N2CCOCC2)oc2ccccc12", "activity change, negative = inhibition": "inactive"}
{"smiles": "CCN(CC)c1ccc(CNc2nc3ccccc3n2CCN2CCCCC2)cc1", "activity change, negative = inhibition": "inconclusive: -15.7%"}
{"smiles": "O=c1oc2ccccc2cc1-c1cn2ccccc2n1", "Potency": "inconclusive: 11.2 µM [falling, partial curve]"}
{"smiles": "Brc1ccc(-c2nnc(Cc3ccccc3)o2)cc1", "Potency": "inconclusive: 14.1 µM [falling, partial curve]"}
{"smiles": "CCOc1ccc(Oc2cc(N)cc([N+](=O)[O-])c2)cc1", "activity change, negative = inhibition": "inconclusive: 5.53%"}
{"smiles": "CCN(c1ccccc1)S(=O)(=O)c1ccc(NC(=O)c2ccco2)cc1", "Potency": "inconclusive: 20 µM [falling, single point]"}
{"smiles": "CCOC(=O)c1ccc(NC(=O)c2cccc(C)c2[N+](=O)[O-])cc1", "activity change, negative = inhibition": "inconclusive: -16.4%"}
{"smiles": "CC(Sc1ccccn1)C(=O)Nc1ccc2c(c1)OCO2", "note": "(configuration not stated)", "activity change, negative = inhibition": "inconclusive: 6.58%"}
{"smiles": "O=C(CN1CCOCC1)Nc1ncc(Br)cc1Br", "activity change, negative = inhibition": "inconclusive: -2%"}
{"smiles": "O=[N+]([O-])c1ccc(S(=O)(=O)N2CCN(c3ccnc4cc(Cl)ccc34)CC2)cc1", "activity change, negative = inhibition": "inactive"}
{"smiles": "Cn1c(=O)c2ncn(CC(=O)N/N=C/C=C/c3ccccc3)c2n(C)c1=O", "activity change, negative = inhibition": "inconclusive: 3.7%"}
{"smiles": "Clc1ccc2c(c1)C1OCCC1C(c1ccco1)N2", "note": "(configuration not stated)", "Potency": "inconclusive: 4.61 µM [rising, full curve, poor fit]"}
{"smiles": "CCCn1c(SCC(=O)Nc2ccccc2N2CCOCC2)nc2c1c(=O)n(C)c(=O)n2C", "activity change, negative = inhibition": "inconclusive: 1.56%"}
{"smiles": "CCOC(=O)C1=C(COC(=O)C2(C)CC2(Cl)Cl)NC(=O)NC1c1ccccc1", "note": "(configuration not stated)", "activity change, negative = inhibition": "inconclusive: 6.6%"}
{"smiles": "O=[N+]([O-])c1ccc(N2CCN(c3ccccc3)CC2)nc1", "activity change, negative = inhibition": "inconclusive: -56.2%"}
{"smiles": "O=C(NNS(=O)(=O)c1ccc(F)cc1)c1ccc([N+](=O)[O-])cc1", "activity change, negative = inhibition": "inconclusive: 2.07%"}
{"smiles": "CC(=O)NC1=NC(=O)/C(=C/N2CCOCC2)S1", "activity change, negative = inhibition": "inconclusive: -2.67%"}
{"smiles": "COCc1ccc(C(=O)Nc2ccc(C(=O)O)cc2)o1", "Potency": "inconclusive: 11.2 µM [falling, partial curve]"}
{"smiles": "CC1(NC(=O)c2cc(Cl)nc3ccccc23)CCS(=O)(=O)C1", "note": "(configuration not stated)", "activity change, negative = inhibition": "inactive"}
{"smiles": "CCCCCCCCn1c2c(c(=N)c3c1CCC3)CCCC2", "activity change, negative = inhibition": "inconclusive: 21.9%"}
{"smiles": "O=C(NCc1ccco1)c1cc(-c2ccco2)on1", "activity change, negative = inhibition": "inconclusive: 0.692%"}
{"smiles": "Cc1noc(NS(=O)(=O)c2ccc(N/C=C\\C(=O)c3ccncc3)cc2)c1C", "activity change, negative = inhibition": "inconclusive: 15%"}
{"smiles": "O=C1NC(c2cccs2)C(C(=O)c2ccccc2)C(O)(C(F)(F)F)N1", "note": "(configuration not stated)", "activity change, negative = inhibition": "inconclusive: 2.1%"}
{"smiles": "COc1ccc(NC(=O)c2ccco2)cc1N", "activity change, negative = inhibition": "inconclusive: -14.9%"}
{"smiles": "CCNC(=O)/C(C#N)=C/c1c(N2CCN(c3ccccc3)CC2)nc2c(C)cccn2c1=O", "activity change, negative = inhibition": "inactive"}
{"smiles": "O=C(Nc1ccc(Cl)c(Cl)c1)N1N=CCC1c1ccccc1", "note": "(configuration not stated)", "activity change, negative = inhibition": "inconclusive: 1.41%"}
{"smiles": "CC12CCC(C(=O)N(NC(=O)c3cc(Cl)ccc3O)C1=O)C2(C)C", "note": "(configuration not stated)", "Potency": "inconclusive: 20 µM [falling, partial curve]"}
{"smiles": "CC(NC(=O)c1ccc(OC2CCN(C(=O)c3cccnc3)CC2)cc1)C1CC1", "note": "(configuration not stated)", "activity change, negative = inhibition": "inconclusive: 9.51%"}
{"smiles": "O=[N+]([O-])c1ccc(C[n+]2cccc3ccccc32)cc1", "activity change, negative = inhibition": "inactive"}
{"smiles": "Cc1cccc(OCCC(=O)Nc2ccc(N3CCOCC3)cc2N2CCOCC2)c1", "activity change, negative = inhibition": "inactive"}
